The record followed here is PMC9339186.

Residue numbers refer to the chain shown, from its start. These are yes or no findings as the source states them, for the method shown. For some of these results: Binding seen in cells or lysates may run through a third protein. Some results given as binding are weak or reduced against the parent protein; the word gives no strength. For some of these results: Tags and fused reporters may be left off the sequences shown.

Test [1] concerns the target T1, Myc-tagged recombinant PPM1A (UniProt P35813).
T1 sequence: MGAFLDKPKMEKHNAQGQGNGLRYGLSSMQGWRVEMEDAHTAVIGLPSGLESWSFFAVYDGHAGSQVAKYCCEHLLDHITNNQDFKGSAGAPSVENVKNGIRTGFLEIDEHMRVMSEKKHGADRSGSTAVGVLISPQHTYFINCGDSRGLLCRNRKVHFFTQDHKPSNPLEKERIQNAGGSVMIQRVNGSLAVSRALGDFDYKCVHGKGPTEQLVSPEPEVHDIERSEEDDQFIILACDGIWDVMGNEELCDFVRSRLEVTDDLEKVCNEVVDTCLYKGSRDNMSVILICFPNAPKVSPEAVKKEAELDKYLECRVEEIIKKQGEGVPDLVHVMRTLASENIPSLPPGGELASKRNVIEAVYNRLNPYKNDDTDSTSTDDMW
The experiment in a line: co-IP; in vitro: purified HA-tagged protein (full-length or truncation) incubated 2 h with purified Myc-tagged partner, beads added for 2 h, immunoprecipitation with anti-Myc, immunoblot with anti-HA or anti-Myc; both purified.

Test [2] addresses T2, Myc-tagged recombinant TRIM18 (UniProt O15344).
T2 sequence: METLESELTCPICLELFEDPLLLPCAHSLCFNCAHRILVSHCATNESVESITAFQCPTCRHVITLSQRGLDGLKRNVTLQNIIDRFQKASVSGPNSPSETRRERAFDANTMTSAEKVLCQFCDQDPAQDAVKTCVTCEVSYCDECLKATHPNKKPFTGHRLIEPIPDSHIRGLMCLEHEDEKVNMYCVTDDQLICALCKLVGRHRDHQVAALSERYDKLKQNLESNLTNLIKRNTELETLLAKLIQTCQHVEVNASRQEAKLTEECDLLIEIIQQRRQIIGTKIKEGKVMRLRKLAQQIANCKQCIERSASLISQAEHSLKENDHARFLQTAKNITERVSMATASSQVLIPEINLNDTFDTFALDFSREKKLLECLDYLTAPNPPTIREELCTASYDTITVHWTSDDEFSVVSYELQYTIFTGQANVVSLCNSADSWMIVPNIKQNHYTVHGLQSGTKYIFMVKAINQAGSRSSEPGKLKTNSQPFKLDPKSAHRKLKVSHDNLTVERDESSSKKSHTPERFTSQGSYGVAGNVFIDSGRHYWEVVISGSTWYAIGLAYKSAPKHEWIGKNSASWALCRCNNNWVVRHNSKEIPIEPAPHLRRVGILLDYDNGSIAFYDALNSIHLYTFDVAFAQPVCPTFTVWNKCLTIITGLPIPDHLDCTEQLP
The description is as above.

The target of test [3] is T3, TANK binding kinase 1 (TBK1; endogenous, mouse bone marrow-derived macrophages) (mouse (endogenous in BMDM)) (UniProt Q9WUN2).
T3 sequence: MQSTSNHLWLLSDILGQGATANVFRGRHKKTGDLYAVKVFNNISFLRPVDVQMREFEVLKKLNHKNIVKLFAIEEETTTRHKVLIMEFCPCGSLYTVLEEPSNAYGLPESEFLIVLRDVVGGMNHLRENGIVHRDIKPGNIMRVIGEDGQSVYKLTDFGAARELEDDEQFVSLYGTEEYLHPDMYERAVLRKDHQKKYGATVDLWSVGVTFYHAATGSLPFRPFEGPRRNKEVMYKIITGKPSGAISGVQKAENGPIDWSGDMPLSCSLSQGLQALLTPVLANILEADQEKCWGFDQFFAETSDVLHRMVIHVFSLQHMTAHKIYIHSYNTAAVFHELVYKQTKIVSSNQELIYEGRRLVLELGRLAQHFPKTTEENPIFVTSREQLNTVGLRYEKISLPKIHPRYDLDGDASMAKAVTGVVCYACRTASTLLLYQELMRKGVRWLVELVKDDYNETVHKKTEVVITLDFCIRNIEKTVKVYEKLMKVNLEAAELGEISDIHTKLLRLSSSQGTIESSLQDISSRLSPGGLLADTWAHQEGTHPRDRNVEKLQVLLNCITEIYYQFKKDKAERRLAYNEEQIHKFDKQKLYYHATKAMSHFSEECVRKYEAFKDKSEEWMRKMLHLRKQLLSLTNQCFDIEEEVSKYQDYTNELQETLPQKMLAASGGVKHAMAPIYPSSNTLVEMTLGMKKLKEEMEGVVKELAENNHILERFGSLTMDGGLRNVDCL
Kind of test: co-IP.

Test [4] has as its target T4, protein phosphatase, magnesium-dependent 1A (PPM1A; endogenous, mouse bone marrow-derived macrophages) (mouse (endogenous in BMDM)) (UniProt P49443).
T4 sequence: T1 sequence with S52T, K86R, N293S, P299A, C314S, G324V, T376A
The experiment in a line: co-IP; endogenous proteins; whole-cell lysates of WT and TRIM18 KO BMDM (resting) incubated 2 h with anti-PPM1A or IgG, protein A/G beads 4 h, immunoblot. (In general: In western blotting, separated proteins are transferred to a membrane and probed.)

B1: HA-tagged full-length TRIM18 (protein, UniProt O15344 1-667)
chain: T2 sequence
Regarding B1, the binding result in test [1] is on record as “binds”.

B2: HA-tagged recombinant full-length PPM1A (enzyme, UniProt P35813 1-382)
chain: T1 sequence
In the case of B2, the binding result in test [2] was “binds”.

B3: TRIM18 (endogenous, mouse bone marrow-derived macrophages) (protein, UniProt O70583 1-680)
chain: METLESELTCPICLELFEDPLLLPCAHSLCFNCAHRILVSHCATNEPVESINAFQCPTCRHVITLSQRGLDGLKRNVTLQNIIDRFQKASVSGPNSPSETRRERAFDANTMSSAEKVLCQFCDQDPAQDAVKTCVTCEVSYCDECLKATHPNKKPFTGHRLIEPIPDSHIRGLMCLEHEDEKVNMYCVTDDQLICALCKLVGRHRDHQVAALSERYDKLKQNLESNLTNLIKRNTELETLLAKLIQTCQHVEVNASRQEAKLTEECDLLIEIIQQRRQIIGTKIKEGKVIRLRKLAQQIANCKQCLERSASLISQAEHSLKENDHARFLQTAKNITERVSMATASSQVLIPEINLNDTFDTFALDFSREKKLLECLDYLTAPNPPAIREELCTASYDTITVHWTSEDEFSVVSYELQYTIFTGQANVVNVACDGTCLLGSAGLCNSADSWMIVPNIKQNHYTVHGLQSGTKYIFTVKAINQAGSRSSEPGKLKTNSQPFRLDPKSAHRKLKVSHDNLTVERDESSSKKSHAPERFAGQGSYGVAGNVFIDSGRHYWEVVTSGSTWYAIGLAYRSAPKHEWIGKNAASWALCRCHNHWAVRHDGKETPIAPAPHLRRVGVLLDYDNGSIAFYDALSSVHLHTFHAALAQPVCPTFTVWNKCLTIVTGLPIPDHLDCTEQRP
On to B3, for which the binding result in test [3] and in test [4] was “binds” each time.
